Results published in article PMC10516997.
Results are given in words; binding and its absence hold for the method and conditions named. In cells and extracts the contact can be indirect. Some entries that bind do so weakly or less than the wild type.

Sequences of proteins named here, by UniProt entry; tags and fusion partners are left off.
UniProt Q9UKL0: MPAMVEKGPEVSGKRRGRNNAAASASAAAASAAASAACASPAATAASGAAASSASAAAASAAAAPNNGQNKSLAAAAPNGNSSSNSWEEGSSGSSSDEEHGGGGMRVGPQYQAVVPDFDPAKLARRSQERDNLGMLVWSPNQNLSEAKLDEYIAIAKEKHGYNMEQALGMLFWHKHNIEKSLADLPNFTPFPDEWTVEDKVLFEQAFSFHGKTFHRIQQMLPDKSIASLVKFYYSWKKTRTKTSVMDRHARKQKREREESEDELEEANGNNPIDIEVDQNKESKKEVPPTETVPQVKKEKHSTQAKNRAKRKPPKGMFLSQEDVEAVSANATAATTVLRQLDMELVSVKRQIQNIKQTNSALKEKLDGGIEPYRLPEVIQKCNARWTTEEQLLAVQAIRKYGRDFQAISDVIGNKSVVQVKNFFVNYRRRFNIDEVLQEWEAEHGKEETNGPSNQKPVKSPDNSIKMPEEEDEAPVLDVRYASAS

Target: Flag-RCOR1 (UniProt Q9UKL0)
Assay: co-IP; Flag-tagged bait stably expressed in H209, H69 and H526 cells; endogenous partner detected

binding: binds
B1: endogenous E2F7 (protein, UniProt Q96AV8 1-911)
chain: MEVNCLTLKDLISPRQPRLDFAVEDGENAQKENIFVDRSRMAPKTPIKNEPIDLSKQKKFTPERNPITPVKFVDRQQAEPWTPTANLKMLISAASPDIRDREKKKGLFRPIENKDDAFTDSLQLDVVGDSAVDEFEKQRPSRKQKSLGLLCQKFLARYPSYPLSTEKTTISLDEVAVSLGVERRRIYDIVNVLESLHLVSRVAKNQYGWHGRHSLPKTLRNLQRLGEEQKYEEQMAYLQQKELDLIDYKFGERKKDGDPDSQEQQLLDFSEPDCPSSSANSRKDKSLRIMSQKFVMLFLVSKTKIVTLDVAAKILIEESQDAPDHSKFKTKVRRLYDIANVLTSLALIKKVHVTEERGRKPAFKWIGPVDFSSSDEELVDVSASVLPELKRETYGQIQVCAKQKLARHGSFNTVQASERIQRKVNSEPSSPYREEQGSGGYSLEIGSLAAVYRQKIEDNSQGKAFASKRVVPPSSSLDPVAPFPVLSVDPEYCVNPLAHPVFSVAQTDLQAFSMQNGLNGQVDVSLASAASAVESLKPALLAGQPLVYVPSASLFMLYGSLQEGPASGSGSERDDRSSEAPATVELSSAPSAQKRLCEERKPQEEDEPATKRQSREYEDGPLSLVMPKKPSDSTDLASPKTMGNRASIPLKDIHVNGQLPAAEEISGKATANSLVSSEWGNPSRNTDVEKPSKENESTKEPSLLQYLCVQSPAGLNGFNVLLSGSQTPPTVGPSSGQLPSFSVPCMVLPSPPLGPFPVLYSPAMPGPVSSTLGALPNTGPVNFSLPGLGSIAQLLVGPTAVVNPKSSTLPSADPQLQSQPSLNLSPVMSRSHSVVQQPESPVYVGHPVSVVKLHQSPVPVTPKSIQRTHRETFFKTPGSLGDPVLKRRERNQSRNTSSAQRRLEIPSGGAD
